Positions count from the first letter of the chain named. Results are given in words; binding and its absence hold for the method and conditions named. For part of these data: In cells and extracts the contact can be indirect. Some binding calls cover weakened binding; strength is not graded here. Where a sequence is shown, tags or fusion partners need not be part of it. Values belong to the binder of their own block, whether it stands above or below them.
Tests used:
[1] = molecular target: T1, Bfa1 (wild type), fused to the DNA binding domain in pGilda (S. cerevisiae) (UniProt P47113); test: two-hybrid; Cdc5, Tem1 and Bub2 fused to the activation domain in pJG4-5; Bfa1 and each Bfa1 mutant fused to the DNA binding domain in pGilda; yeast strain EGY48 with the reporter plasmid pSH18-34; measured quantitatively
T1 sequence: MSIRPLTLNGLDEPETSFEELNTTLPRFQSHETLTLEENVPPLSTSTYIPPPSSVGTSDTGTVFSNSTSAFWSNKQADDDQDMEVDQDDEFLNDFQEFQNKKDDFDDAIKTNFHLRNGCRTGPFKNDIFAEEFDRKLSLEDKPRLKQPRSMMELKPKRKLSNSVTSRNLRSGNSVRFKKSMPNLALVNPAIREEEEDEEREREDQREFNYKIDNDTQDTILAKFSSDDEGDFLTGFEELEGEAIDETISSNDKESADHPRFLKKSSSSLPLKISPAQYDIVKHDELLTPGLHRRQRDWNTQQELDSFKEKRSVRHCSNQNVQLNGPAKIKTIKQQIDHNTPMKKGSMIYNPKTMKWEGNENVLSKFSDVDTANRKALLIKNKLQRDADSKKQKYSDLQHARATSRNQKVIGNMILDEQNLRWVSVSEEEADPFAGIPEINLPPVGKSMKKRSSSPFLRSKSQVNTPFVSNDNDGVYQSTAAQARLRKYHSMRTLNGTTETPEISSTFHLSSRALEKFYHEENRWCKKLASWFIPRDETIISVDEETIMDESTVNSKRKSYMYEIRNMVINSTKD

[2] = molecular target: T2, Bfa1^4A (SSS452AAA S559A), fused to the DNA binding domain in pGilda (S. cerevisiae) (UniProt P47113); test: as above
T2 sequence: T1 sequence with S452A, S453A, S454A, S559A

[3] = molecular target: T3, 3XHA-tagged Kin4 (KIN4-3HA) (S. cerevisiae) (UniProt Q01919); test: co-IP; Crude extracts of yeast grown at 25°C to mid-log phase; Kin4-3HA purified with anti-HA followed by protein A-agarose; co-precipitates blotted with PAP for Bfa1-TAP or Bfa1^4A-TAP
T3 sequence: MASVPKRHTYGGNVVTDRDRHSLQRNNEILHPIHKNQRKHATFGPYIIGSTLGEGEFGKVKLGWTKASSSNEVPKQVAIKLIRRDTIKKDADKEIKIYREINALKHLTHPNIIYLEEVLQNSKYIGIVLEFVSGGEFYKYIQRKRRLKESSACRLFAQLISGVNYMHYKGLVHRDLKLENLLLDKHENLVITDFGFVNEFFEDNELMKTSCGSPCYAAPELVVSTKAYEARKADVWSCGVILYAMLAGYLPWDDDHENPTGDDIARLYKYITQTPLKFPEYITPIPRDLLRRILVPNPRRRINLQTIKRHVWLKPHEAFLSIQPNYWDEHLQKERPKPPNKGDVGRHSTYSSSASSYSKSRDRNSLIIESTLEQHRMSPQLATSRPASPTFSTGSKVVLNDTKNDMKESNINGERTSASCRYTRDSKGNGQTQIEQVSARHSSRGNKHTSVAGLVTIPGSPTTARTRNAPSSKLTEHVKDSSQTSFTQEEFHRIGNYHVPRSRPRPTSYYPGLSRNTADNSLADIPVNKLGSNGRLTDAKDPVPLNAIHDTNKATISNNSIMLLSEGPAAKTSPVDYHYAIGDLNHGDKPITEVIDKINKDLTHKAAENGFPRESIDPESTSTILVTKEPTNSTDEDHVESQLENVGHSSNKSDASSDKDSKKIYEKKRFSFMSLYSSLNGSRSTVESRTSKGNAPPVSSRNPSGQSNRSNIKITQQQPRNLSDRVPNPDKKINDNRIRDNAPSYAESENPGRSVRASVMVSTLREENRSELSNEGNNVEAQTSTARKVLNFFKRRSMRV

binding [3]: binds
B2: TAP-tagged Bfa1 (BFA1-TAP) (protein, UniProt P47113 1-574)
chain: T1 sequence

binding [1]: binds
binding [2]: binds
B4: Tem1, fused to the DNA activation domain in pJG4-5 (enzyme, UniProt P38987 1-245)
chain: MATPSTGANNSIPAVRNQVEVQVGLVGDAQVGKTSLMVKYVQNIYDKEYTQTLGVNFLKRKVSIRSTDIIFSIMDLGGQREFINMLPIATVGSSVIIFLFDLTRPETLSSIKEWYRQAYGLNDSAIPILVGTKYDLLIDLDPEYQEQISRTSMKYAQVMNAPLIFCSTAKSINIQKIFKIALAKIFNLTLTIPEINEIGDPLLIYKHLGGQQHRHHNKSQDRKSHNIRKPSSSPSSKAPSPGVNT

The next lines start with the binder.

B1: Bub2, fused to the DNA activation domain in pJG4-5 (protein, UniProt P26448 1-306)
chain: MTSIEDLISNPPLLLHSSLSQLRYLILSEGLPISEDKQQQRTRCYVWTVLSQTSMEASTQRYLALLKLGPPSTTIYQKIKNDTSRTFQTDPNFRNRVSEDALIRCLSCFAWQTQQRRQKTRFGRIPVSTYVQGMNVLLAPLLYSCPSEPMAYQLFTKLCYEMIPTYLTKNLNGAQNGAKLLDISLRIIDPKLSKFLSDNLLTAEIYGMPSILTLSSCNKPLDQVIKLWDFMFAYGFHMNILFVVAFLVKMRSKVFKSDSPVNLLRQFPDFDADEIIRLGVGFIAKIPAQIYDLLVDHLTDPDIYIP
binding [1]: binds
binding [2]: binds

B3: TAP-tagged Bfa1^4A (BFA1^4A-TAP) (protein, UniProt P47113 1-574)
chain: T1 sequence with S452A, S453A, S454A, S559A
binding [3]: binds
